# In PubChem BioAssay AID1487 (National Center for Advancing Translational Sciences (NCATS), 2009):
# Screen size: about 200,000 compounds; about 25 (0.01%) were called active. Inconclusive means that the source gave no clear call. Such entries were picked first, then a sample of the others. The call rests on the fitted dose curve; in most records, active means well fitted inhibition curve with a large enough effect in the signal ratio, with a control signal flat (not every such curve was filed as active); inconclusive means small, poorly fitted or top-dose-only effect, or effect the other way, or a change in a side signal; inactive means flat fitted curve, though single readings scatter; the % refers to the signal ratio. Potencies beside an inconclusive call are fits to weak or partial responses and may not hold up.
# Experiment: qHTS Assay for Modulators of Lamin A Splicing
# Conditions: HeLa LMNA splicing GFP/RFP minigene ratio, 48 h; ratio change, negative = inhibition: at 46.1 µM (top of the series) unless noted
# Outline: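 S3 HeLa cells stably expressing lamin A-EGFP splicing minigene plus DsRed2, 600 cells/well, 48 h compound exposure at 37C. Laser-scanning cytometry; analysed as GFP (500-530 nm)/RFP (575-640 nm) total intensity ratio; 0.5% DMSO vehicle.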
# On the % scale 0 is the no-effect control and ±100 the full control effect; potency means the concentration at half of the fitted maximal effect.
Structure (SMILES),"ratio change, negative = inhibition",Potency
CC(C)(C)NS(=O)(=O)c1ccc(CCC(=O)Nc2ccc3c(c2)OCCO3)cc1,inactive,–
Cc1onc(-c2ccccc2Cl)c1C(=O)Nc1ccc(-c2nnc3n2CCCCC3)cc1,inactive,–
CC(C)(C)SCCNS(=O)(=O)c1ccccc1,inactive,–
O=C(COC(=O)Cc1ccccc1F)Nc1ccc(Cl)cn1,inconclusive: 31.2% [at 46 µM],–
CCn1c(=O)oc2cc(NC(=O)CCl)ccc21,inconclusive: 50.9% [at 46 µM],–
COC(=O)C1=C(C(=O)OC)[C@@H]2N(Cc3ccccc3)c3ccccc3[C@@]23C[C@@H](C(=O)OC)N(S(=O)(=O)c2ccc(C#N)cc2)C3=N1,inactive: 2.68% [at 9.22 µM],–
COC(=O)Cn1c(O)c(N=NC(=O)c2ccc3c(c2)OCO3)c2ccccc21,inactive,–
C=CCN1C(=O)N/C(=C/c2ccc(N3CCOCC3)o2)C1=O,–,"inconclusive: 35.5 µM [fluorescent, single point]"
Cc1ccc([N+](=O)[O-])cc1NC(=O)CN1CCC(C)CC1,inconclusive: 14.4%,–
COc1ccc(NCC(O)COc2ccc(C(C)(C)C)cc2)cc1 (stereo not given),inconclusive: -33.1% [at 46 µM],–
C1OCOCO1,inconclusive: -6.26%,–
O=C(Nc1ccc(F)c(F)c1)c1ccc2c(c1)OCO2,–,"inconclusive: 35.5 µM [falling, single point]"
O=C(Nc1ccc2nc(SCC(=O)N3CCCc4ccccc43)sc2c1)c1cccc(F)c1,inconclusive: -17.2% [at 46 µM],–
COc1ccc(/C=C/C(=O)c2ccc(NC(=O)c3cccs3)cc2)cc1OC,–,"inconclusive: 35.5 µM [cytotoxic, single point]"
COc1ccc(NC(=O)CC2C(=O)N(c3ccc(Cl)cc3)C(=S)N2CCc2ccccn2)cc1 (stereo not given),–,"inconclusive: 35.5 µM [inhibitor, single point]"
COc1ccc(C(CC(=O)Nc2cc(OC)cc(OC)c2)n2cccc2)cc1 (stereo not given),inactive,–
Cc1cccc(CSc2ncc(CO)n2Cc2ccc(F)cc2)c1,inconclusive: 12.9% [at 46 µM],–
COc1ccc(N(Cc2ccccc2)C(=O)c2ccccc2[N+](=O)[O-])cc1,–,"inconclusive: 35.5 µM [fluorescent, single point]"
CCOC(=O)c1cc(C(=O)OCC)c2cc(Br)ccc2n1,inconclusive: -10.7%,–
COc1ccc(NC(=O)c2sc(SCc3ccccc3)nc2N)cc1,inactive,–
CCOc1ccc(-n2cnc3scc(-c4ccc(OC)c(OC)c4)c3c2=O)cc1,inconclusive: 26.9% [at 46 µM],–
Cc1ccccc1-n1c(SCC(=O)N/N=C/c2sccc2C)nc2ccccc2c1=O,inconclusive: 3.14%,–
CC(=O)c1ccc(N2CCN(C(=O)/C=C/c3ccc(S(=O)(=O)N4CCOCC4)cc3)CC2)cc1,inconclusive: -23.3% [at 46 µM],–
O=C(c1cc(-c2ccncc2)nc2ccc(Br)cc12)N1CCN(Cc2ccc3c(c2)OCO3)CC1,inconclusive: 41.6% [at 46 µM],–
COc1ccccc1NC(=O)c1nnn(Cc2ccccc2)c1NC(=O)C(F)(F)F,inconclusive: 0.545%,–

# Random excerpt: 3 records from the list
Structure (SMILES),"ratio change, negative = inhibition",Potency
CC(C)(C)NS(=O)(=O)c1ccc(CCC(=O)Nc2ccc3c(c2)OCCO3)cc1,inactive,–
Cc1onc(-c2ccccc2Cl)c1C(=O)Nc1ccc(-c2nnc3n2CCCCC3)cc1,inactive,–
COc1ccc(N(Cc2ccccc2)C(=O)c2ccccc2[N+](=O)[O-])cc1,–,"inconclusive: 35.5 µM [fluorescent, single point]"

# The results go on:

Structure (SMILES),"ratio change, negative = inhibition",Potency
COCn1c(=O)c2c(nc(SC3=NCCS3)n2Cc2ccccc2C)n(COC)c1=O,inactive,–
O=S(=O)(Nc1nc(CN2CCOCC2)nc2sc3c(c12)CCCC3)c1cc(F)ccc1F,inactive,–
CC(C)CN(C(=O)c1ccco1)c1nc2ccccc2s1,inconclusive: -20.5% [at 46 µM],–
CCn1ncc(C2=NOC(C(=O)Nc3cccc(C(C)=O)c3)C2)c1C (stereo not given),–,"inconclusive: 10 µM [fluorescent, partial curve]"
CCOC(=O)C1CNc2cc(S(=O)(=O)CC)ccc2O1 (stereo not given),inactive: 9.68% [at 9.22 µM],–
CC1(c2ccc([N+](=O)[O-])c(CS(=O)(=O)c3ccccc3)c2)OCCO1,inconclusive: 16.2% [at 9.22 µM],–
CCc1nc(C)cn1S(=O)(=O)c1cc(C)c(OC)cc1C,inactive,–
O=C(Oc1ccc(Br)cc1C(=S)N1CCCC1)c1ccccc1F,inconclusive: 12.3%,–
COc1cc(C(=O)Sc2ccc(C)cc2)cc(OC)c1OC,–,"inconclusive: 35.5 µM [cytotoxic, single point]"
CCOC(=O)c1sc(Nc2nc3c(OC)cccc3s2)cc1C,–,"inconclusive: 35.5 µM [inhibitor, single point]"
Cc1cc2nc(C3CCN(Cc4nnnn4Cc4ccccc4)CC3)[nH]c2cc1C,inconclusive: 10.1% [at 0.0737 µM],–
C=CCN(CC=C)CCOc1ccccc1F,inconclusive: -9.49%,–
O=C(CN(Cc1ccccc1)C(=O)c1ccc2c(c1)OCCO2)NCc1ccc2c(c1)OCO2,inconclusive: 15.9%,–
CC(C)N1CSC(=S)N(Cc2ccccc2)C1,inconclusive: 19% [at 9.22 µM],–
Cc1ccc2nc(CSc3nnc4ccccn34)cc(=O)n2c1,inconclusive: 11.3% [at 9.22 µM],–
COc1ccc(CCCC(=O)O)c(C)c1,inconclusive: -2.5%,–
CCn1c(SCC(=O)Nc2nccc(C)n2)nc2ccccc21,inactive,–
CC(C)=CCOc1ccc(/C=C/C(=O)c2ccc(OCC=C(C)C)cc2OCC(=O)O)cc1,–,"inconclusive: 12.6 µM [inhibitor, single point]"
CC(C)Cc1nc2oc3c(=O)[nH]cnc3c2c2c1CCC2,inconclusive: 14.1%,–
O=C(CSc1ncn[nH]1)Nc1ccc2c(c1)CCC2,–,"inconclusive: 35.5 µM [fluorescent, single point]"
CS(=O)(=O)c1nc(-c2ccco2)cc(C(F)(F)F)n1,inconclusive: 9.13%,–
COc1cccc(C(=O)N=c2sc3cc(S(C)(=O)=O)ccc3n2C)c1,inactive,–
CC(=O)Nc1ccccc1C(=O)N1CCN(c2cccc(C)c2C)CC1,–,"inconclusive: 2 µM [inhibitor, partial curve]"
CCC1CCCCN1C(=O)Cn1c(=O)n(-c2ccccc2C(F)(F)F)c(=O)c2c(C)c(C(=O)N(C)C)sc21 (stereo not given),inactive,–
CCCCC(=O)NC1(C(F)(F)F)C(=O)Nc2c1c(=O)[nH]c(=O)n2-c1ccc(F)cc1 (stereo not given),inconclusive: 3.88% [at 46 µM],–
